Measured values published in patent US20060149521A1 (University of California, published 2006).
No constants are given. Whether binding was seen depends on the method and setting. Binding can be weak; no strength is given.

B1: GRIP1 NR-box 3 peptide ENALLRYLLDKDD (peptide)
peptide: ENALLRYLLDKDD
B2: GRIP1 NR-box 2 peptide EKHKILHRLLQDS (peptide)
peptide: EKHKILHRLLQDS
notes: also called original NR-box 2 peptide

What was measured:
[1] = target: glucocorticoid receptor (GR), full length; experiment: peptide competition of GR binding to GST-GRIP1 (563-767)
[2] = target: glucocorticoid receptor (GR), full length; experiment: peptide competition of GR binding to GRIP1

| Binder | binding [1] | binding [2] |
| --- | --- | --- |
| B1 | binds |  |
| B2 |  | binds |
